Values quoted from earlier work as cited in US5693312A, “Pharmaceutical composition having analgesic activity” (Zambon Group S.p.A., priority 1993, dated 1997).

Details: oral, daily doses of 500-1500 mg

COc1ccc2cc([C@H](C)C(=O)O)ccc2c1 [Naproxen, (S)-2-(6-methoxy-2-naphthyl)propionic acid]
time to reach maximum plasmatic concentration: about two
